Record: PubChem BioAssay AID1508587 (Peter MacCallum Cancer Centre, 2020)
Aim: 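Knockdowns that add to vemurafenib's cut in melanoma glycolysis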 (follow-up of hits). Cells: human WM266.4 melanoma cells with a BRAF V600 mutation. Reagents: single siRNA against human genes, 25 nM. Timing: 96 h. Conditions: vemurafenib 300 nM (about IC25), given 48 h after transfection for 48 h. Measurement: 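Per-cell lactate from absorbance divided by DAPI nucleus counts, compared with and without vemurafenib, relative to non-targeting siRNA, mean of 2 replicates; nuclear counts also give cell number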. Reading the numbers: lactate per cell, drug vs no drug: higher = less drug-induced drop in lactate per cell; lactate per cell with vemurafenib: higher = more lactate per cell under drug; lactate per cell without drug: higher = more lactate per cell without drug; cell growth with vemurafenib and cell growth without drug: higher = more cell growth over 48 h. Call rule: 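a duplex is active when its lactate-per-cell ratio with versus without drug falls under 0.55, i.e. 2 SD below non-targeting; a gene is confirmed if 2 or more of 4 duplexes pass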.
This is a random part of about 1,600 reagents. Over the whole deposit, 623 (39%) were called active. 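Calls are for each duplex; lactate ratios contain extreme outliers.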 Reagents against one gene are numbered here. Reagent sequences are not shown.

Target gene	reagent	lactate per cell, drug vs no drug	lactate per cell with vemurafenib	lactate per cell without drug	cell growth with vemurafenib	cell growth without drug	activity call
CYP1A1 (GeneID 1543)	1	0.57	1.22	1.38	0.79	0.58	inactive
CYP1A1 (GeneID 1543)	2	0.7	2.46	2.29	-0.04	0.04	inactive
CYP1A1 (GeneID 1543)	3	0.55	0.68	0.81	0.13	0.34	inactive
CYP1A1 (GeneID 1543)	4	0.52	0.52	0.68	0.33	0.59	active
SKIC3 (GeneID 9652)	1	0.72	0.81	0.73	0.71	0.97	inactive
SKIC3 (GeneID 9652)	2	0.71	0.98	0.9	0.23	0.44	inactive
SKIC3 (GeneID 9652)	3	0.35	0.14	0.27	0.28	0.73	active
SKIC3 (GeneID 9652)	4	0.75	1.07	0.94	0.93	1.19	inactive

Next part, starting with the last 2 of the part before.
Target gene	reagent	lactate per cell, drug vs no drug	lactate per cell with vemurafenib	lactate per cell without drug	cell growth with vemurafenib	cell growth without drug	activity call
SKIC3 (GeneID 9652)	3	0.35	0.14	0.27	0.28	0.73	active
SKIC3 (GeneID 9652)	4	0.75	1.07	0.94	0.93	1.19	inactive
STAT5B (GeneID 6777)	1	0.55	1.81	2.13	0.64	0.47	inactive
STAT5B (GeneID 6777)	2	0.77	2.17	1.82	0	0.06	inactive
STAT5B (GeneID 6777)	3	0.45	0.46	0.68	0.47	0.43	active
STAT5B (GeneID 6777)	4	0.5	0.57	0.74	0.95	1.21	active
ZFP36 (GeneID 7538)	1	0.43	1.78	2.57	0.03	-0.01	active
ZFP36 (GeneID 7538)	2	0.31	0.8	1.6	0.1	0.09	active
ZFP36 (GeneID 7538)	3	0.64	2.43	2.44	0.12	0.07	inactive
ZFP36 (GeneID 7538)	4	0.51	1.54	2.12	0.58	0.28	active
APOO (GeneID 79135)	1	0.71	1.94	1.85	0.38	0.23	inactive
APOO (GeneID 79135)	2	0.6	1.54	1.84	0.11	0.2	inactive
APOO (GeneID 79135)	3	0.35	0.37	0.72	-0.08	0.21	active
APOO (GeneID 79135)	4	0.58	0.84	1	0.55	0.88	inactive
